Source: PubChem BioAssay AID652243 (Drosophila RNAi Screening Center, 2013)

- Test: 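Fly regulators of androgen-dependent reporter output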 (primary screen)
- Cell system: Drosophila S2R+ cells
- Reagents: long dsRNA against Drosophila genes
- Timing: 72 h (48 h, then 24 h hormone)
- Challenge: synthetic androgen R1881 at 10 nM for 24 h
- Measurement: 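Firefly light from an androgen-responsive reporter and Renilla control light per well, raw and unnormalised, for each of two replicates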
- Direction: firefly reporter light: higher = more light from androgen-responsive reporter; Renilla control light: higher = more constitutive control signal (cell number, transfection)
- Rule for the call: 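Hit when the log firefly-to-Renilla ratio dropped or increased by a fixed fold versus the mean of GFP or LacZ controls across duplicate plates; lowering cut given as 1.5 and as 3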
- Calls: active = hit: reporter lowered or raised; inactive = no hit
The deposit covers about 24,000 reagents; this is a random part of those that have a named target and a result. In the full data, 246 (1%) got an active call. 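Plates not normalised; calls are printed but the firefly/Renilla ratio behind them is not deposited; fold cut for lowering reported inconsistently.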 The raw values are shown without normalisation. Names joined by + are all predicted targets of the reagent. Not stated in the record: the amount of reagent.

target,dsRNA,"firefly reporter light, replicate 1","firefly reporter light, replicate 2","Renilla control light, replicate 1","Renilla control light, replicate 2",Call
Urm1 (GeneID 2768949),DRSC22941,5.61e5,8.81e5,6.01e5,1.14e6,inactive
Urm1 (GeneID 2768949),DRSC29463,4.20e5,4.16e5,1.97e6,1.97e6,active
Urm1 (GeneID 2768949),DRSC39097,4.42e5,3.72e5,1.16e6,1.14e6,inactive
CG31933 (GeneID 326176),DRSC00457,1.18e5,1.30e5,8.92e5,1.30e6,inactive
EMC3 (GeneID 34479),DRSC02989,1.91e5,2.87e5,1.51e6,1.60e6,inactive
EMC3 (GeneID 34479),DRSC28014,5.67e5,6.70e5,1.68e6,1.80e6,inactive
Tbp (GeneID 37476),DRSC23111,2.65e5,3.23e5,1.68e6,1.98e6,active
CG5707 (GeneID 48422),DRSC08573,6.76e5,7.61e5,1.10e6,1.87e6,inactive
CG5707 (GeneID 48422),DRSC24854,6.44e5,7.70e5,6.99e5,8.75e5,inactive
MtnA (GeneID 41202),DRSC21588,6.45e5,7.62e5,2.68e6,3.49e6,inactive
HemK2 + Snapin,DRSC00736,6.53e5,8.90e5,2.25e6,1.78e6,inactive
CG32808 (GeneID 318221),DRSC17689,6.87e5,6.31e5,1.76e6,1.05e6,inactive
CG32808 (GeneID 318221),DRSC28726,3.69e5,2.90e5,1.23e6,1.19e6,inactive
Baldspot (GeneID 39860),DRSC09671,2.96e5,2.93e5,2.91e6,2.85e6,inactive
Abp1 (GeneID 39520),DRSC09693,2.85e5,1.40e5,1.80e6,1.56e6,inactive
fog (GeneID 33148),DRSC20646,64554,62178,5.45e5,5.68e5,inactive
CG17141 (GeneID 42697),DRSC15178,1.54e5,79264,2.03e6,1.55e6,inactive
CG6683 (GeneID 38970),DRSC10694,8.18e5,7.90e5,1.36e6,1.24e6,inactive
CG6683 (GeneID 38970),DRSC25674,1.01e6,7.63e5,1.17e6,1.25e6,inactive
Gnf1 (GeneID 40607),DRSC12351,40544,53439,1.57e6,1.43e6,inactive
Gnf1 (GeneID 40607),DRSC26682,1.71e5,2.05e5,6.04e5,6.45e5,inactive
CG13527 (GeneID 37615),DRSC04169,4.53e5,4.97e5,1.73e6,1.96e6,inactive
CG33252 (GeneID 2768903),DRSC19162,9.17e5,1.21e6,1.02e6,8.00e5,inactive
RpS23 (GeneID 36576),DRSC07169,5.92e5,4.53e5,1.56e6,1.80e6,inactive
RpS23 (GeneID 36576),DRSC26313,2.01e5,1.80e5,4.40e5,4.14e5,inactive
Obp28a (GeneID 34031),DRSC03394,1.43e5,1.80e5,1.47e6,1.69e6,inactive
Obp28a (GeneID 34031),DRSC25374,5.33e5,4.37e5,4.55e5,6.02e5,inactive
NLaz (GeneID 33324),DRSC21521,7.70e5,6.77e5,2.36e6,2.20e6,inactive
B-H2 (GeneID 32723),DRSC23012,6.64e5,7.39e5,2.01e6,1.96e6,inactive
B-H2 (GeneID 32723),DRSC25817,4.41e5,5.61e5,7.19e5,7.11e5,inactive
Hexim (GeneID 41778),DRSC15490,38767,59351,4.10e5,4.07e5,inactive
Nmd3 (GeneID 31195),DRSC18687,1.11e5,1.04e5,1.38e6,7.19e5,inactive
Nmd3 (GeneID 31195),DRSC22834,4.27e5,8.01e5,4.87e5,7.80e5,inactive
ND-75 (GeneID 31762),DRSC18686,4.05e5,2.91e5,2.71e6,3.02e6,inactive
CG6481 (GeneID 32843),DRSC19995,5.23e5,5.68e5,3.63e6,3.14e6,inactive
CG8272 (GeneID 35875),DRSC07134,6.51e5,3.69e5,7.53e5,7.20e5,inactive
Oga (GeneID 42518),DRSC15901,65602,72859,6.12e5,6.07e5,inactive
CanB (GeneID 44317),DRSC18449,69833,83667,1.16e6,1.12e6,inactive
CanB (GeneID 44317),DRSC29220,5.29e5,4.99e5,1.47e6,1.54e6,inactive
D2hgdh (GeneID 31184),DRSC18577,1.21e5,1.32e5,1.10e6,8.97e5,inactive
D2hgdh (GeneID 31184),DRSC25824,3.74e5,4.57e5,5.89e5,6.46e5,inactive
CG2854 (GeneID 31219),DRSC18595,3.17e5,2.48e5,4.20e6,2.85e6,inactive
CG8468 (GeneID 36577),DRSC07190,76718,1.12e5,1.48e6,1.48e6,inactive
CG8468 (GeneID 36577),DRSC26347,3.78e5,3.28e5,6.72e5,7.02e5,inactive
Or1a (GeneID 30978),DRSC18689,3.35e5,3.43e5,3.73e6,3.19e6,inactive
Tsp74F (GeneID 39995),DRSC10508,2.63e5,2.37e5,2.24e6,2.97e6,inactive
CG15642 (GeneID 32476),DRSC19678,2.69e5,3.54e5,2.33e6,2.73e6,inactive
CG15642 (GeneID 32476),DRSC29032,5.58e5,5.90e5,1.43e6,1.49e6,inactive
Sou (GeneID 37382),DRSC04356,1.34e5,2.74e5,1.44e6,1.99e6,inactive
Ctr9 (GeneID 38149),DRSC08562,1.16e6,1.06e6,1.21e6,1.46e6,inactive
Ctr9 (GeneID 38149),DRSC27308,3.23e5,2.01e5,6.76e5,5.81e5,inactive
CG34141 (GeneID 4379870),DRSC38603,8.46e5,6.23e5,2.37e6,2.53e6,inactive
CanB2 (GeneID 46456),DRSC07355,3.48e5,4.35e5,2.42e6,4.36e6,inactive
CanB2 (GeneID 46456),DRSC27440,2.46e5,2.50e5,7.26e5,9.34e5,inactive
CG11694 (GeneID 40985),DRSC14354,1.08e5,1.86e5,1.91e6,1.91e6,inactive
CG11694 (GeneID 40985),DRSC24061,1.19e6,9.04e5,9.25e5,7.92e5,inactive
CG11694 (GeneID 40985),DRSC39064,4.83e5,4.17e5,1.49e6,1.60e6,inactive
Rh50 (GeneID 38589),DRSC08692,6.50e5,9.04e5,1.04e6,1.67e6,inactive
Ptip (GeneID 39552),DRSC10660,2.28e5,2.47e5,2.08e6,1.66e6,inactive
Ptip (GeneID 39552),DRSC11048,62296,29438,5.97e5,5.22e5,inactive
Pcl (GeneID 37069),DRSC07503,5.47e5,4.73e5,5.29e5,6.13e5,inactive
Pcl (GeneID 37069),DRSC24868,4.57e5,3.87e5,5.19e5,3.25e5,inactive
CG5790 (GeneID 35095),DRSC02896,1.39e6,7.07e5,1.86e6,1.06e6,inactive
CG5790 (GeneID 35095),DRSC26201,3.20e5,3.46e5,6.76e5,7.68e5,inactive
CG5790 (GeneID 35095),DRSC37053,,,,,inactive
CG11241 (GeneID 40492),DRSC11641,2.34e5,2.44e5,2.88e6,2.44e6,inactive
CG11241 (GeneID 40492),DRSC22165,1.14e6,8.33e5,1.47e6,1.23e6,inactive
CG9471 (GeneID 41197),DRSC16499,78390,74252,1.75e6,1.41e6,inactive
CG9471 (GeneID 41197),DRSC26334,3.21e5,3.20e5,7.06e5,6.78e5,inactive
CG9663 (GeneID 33541),DRSC00724,6.32e5,8.02e5,2.20e6,1.58e6,inactive
CG1677 (GeneID 31662),DRSC18116,2.20e5,2.69e5,3.68e6,4.49e6,inactive
Dgp-1 (GeneID 37080),DRSC07400,1.40e5,1.58e5,1.47e6,1.47e6,inactive
CG7423 (GeneID 32894),DRSC20044,1.81e5,1.30e5,5.96e5,3.97e5,inactive
Hil (GeneID 37328),DRSC05989,5.95e5,6.20e5,1.47e6,1.74e6,inactive
Hil (GeneID 37328),DRSC06395,1.11e5,1.67e5,1.91e6,2.05e6,inactive

10 entries from above, showing only “Renilla control light, replicate 2”.
CG6481 (GeneID 32843) [DRSC19995] = 3.14e6
CG8272 (GeneID 35875) [DRSC07134] = 7.20e5
Oga (GeneID 42518) [DRSC15901] = 6.07e5
CanB (GeneID 44317) [DRSC18449] = 1.12e6
CanB (GeneID 44317) [DRSC29220] = 1.54e6
D2hgdh (GeneID 31184) [DRSC18577] = 8.97e5
D2hgdh (GeneID 31184) [DRSC25824] = 6.46e5
CG2854 (GeneID 31219) [DRSC18595] = 2.85e6
CG8468 (GeneID 36577) [DRSC07190] = 1.48e6
CG8468 (GeneID 36577) [DRSC26347] = 7.02e5
